Laboratory results from article PMC5072831, “Novel Nuclear Factor-KappaB Targeting Peptide Suppresses β-Amyloid Induced Inflammatory and Apoptotic Responses in Neuronal Cells” (PLoS ONE, 2016).
No constants are given. Whether binding was seen depends on the method and setting. Some binding calls cover weakened binding; strength is not graded here. Tags and fused reporters may be left off the sequences shown.

Protein sequences, listed by entry. Tags and fused reporters are not part of them.
UniProt Q04206: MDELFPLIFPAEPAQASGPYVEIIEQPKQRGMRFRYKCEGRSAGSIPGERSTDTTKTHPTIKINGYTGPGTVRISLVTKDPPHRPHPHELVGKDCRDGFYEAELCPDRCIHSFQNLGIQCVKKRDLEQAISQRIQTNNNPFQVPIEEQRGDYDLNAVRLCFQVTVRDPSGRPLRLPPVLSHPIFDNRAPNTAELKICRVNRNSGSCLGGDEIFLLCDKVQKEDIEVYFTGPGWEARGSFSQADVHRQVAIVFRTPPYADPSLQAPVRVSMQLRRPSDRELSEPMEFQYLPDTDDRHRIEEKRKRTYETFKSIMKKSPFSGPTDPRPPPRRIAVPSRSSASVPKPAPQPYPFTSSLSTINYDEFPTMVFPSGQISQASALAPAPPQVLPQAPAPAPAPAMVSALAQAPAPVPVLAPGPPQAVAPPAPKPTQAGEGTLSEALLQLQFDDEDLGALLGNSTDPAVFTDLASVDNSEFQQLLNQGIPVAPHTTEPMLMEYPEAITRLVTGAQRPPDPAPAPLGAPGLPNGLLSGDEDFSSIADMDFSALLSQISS

Molecular target: T1, purified recombinant human GILZ protein (r-GILZ) with GST tag (human) (UniProt Q99576)
T1 sequence: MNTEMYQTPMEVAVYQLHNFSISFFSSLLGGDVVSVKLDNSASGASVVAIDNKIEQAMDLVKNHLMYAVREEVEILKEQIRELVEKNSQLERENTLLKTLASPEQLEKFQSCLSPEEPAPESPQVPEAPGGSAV
Assay: ELISA; high binding plates coated with r-GILZ (0.5μM to 20μM), probed with 80μM r-p65, detected with anti-DDK antibody; absorbance at 650nm; both purified

binding: binds
Substance: Recombinant human p65 protein (r-p65) with DDK tag (from UniProt Q04206 1-551)
